Results from patent US7579152B2, “SENP1 as a marker of cancer development and target for cancer therapy” (Board of Regents, the University of Texas System, priority 2004, dated 2009).
At least one structure is not confirmed: it was looked up by name or label, or the drawing left a doubt.

Tested on: SENP1
Experiment: SENP1 mRNA levels by quantitative real-time PCR in LNCaP cells after androgen/cytokine treatment
Type: cell-based, human
Method: LNCaP, PC-3, and DU145 cells were maintained in RPMI 1640 media containing 10% fetal bovine serum and 1% penicillin/streptomycin. The RWPE2 were maintained in Keratinocyte-Serum Free medium supplemented with 5 ng/ml human recombinant EGF and 0.05 mg/ml bovine pituitary extract. For hormone/cytokine treatment, the maintenance media was replaced with phenol red-free RPMI 1640 media containing 10% charcoal-stripped bovine serum and 1% penicillin/streptomycin.
Cells (LNCaP and/or PC-3) were prepared for RNA isolation using the RNA-Bee Reagent (Tel-Test Inc, Friendswood, Tex.) according to manufacture's instructions with stock samples diluted to the appropriate concentrations with the DEPC-treated water.
The TaqMan Master Mix Reagents (Applied Biosystems, Branchburg, N.J.) were utilized for the quantitative real-time PCR (QRT-PCR) reaction. Primers for either SENP1 ([…]; forward: SEQ. ID. NO. 5: 5′-TTGGCCAGAGTGCAAATGG-3′ and reverse: SEQ. ID. NO. 6 5′-[…]-3′) or the housekeeping 18S rRNA were utilized. SENP1 RNA levels were calculated using the TaqMan ABI PRISM 7900 Sequence Detector System (PE Applied Biosystems).

Structure (SMILES): CC(O)(CS(=O)(=O)c1ccc(F)cc1)C(=O)Nc1ccc(C#N)c(C(F)(F)F)c1 (centres unmarked) [bicalutamide]
- SENP1 expression on R1881 treatment in the presence of AR antagonist (20 nM R1881 with bicalutamide 5 μM): unaltered
- Upregulation of SENP1 mediated via chronic IL-6 treatment, effect of AR antagonist (bicalutamide 5 μM): lowers
